The experiment deals with Kruppel-like factor 5 (KLF5) (human (endogenous in OCI-AML3)) (UniProt Q13887). The experiment in a line: co-IP; endogenous proteins in sonicated cell lysates in IP buffer (20 mM Tris-Cl, 150 mM NaCl, 1 mM EDTA, 1 mM EGTA, 1% Triton X-100, pH 7.5); specific antibodies or normal IgG with protein A/G beads overnight at 4 °C; western blot; also in cells with shNPM1, shHOTAIRM1 or HOTAIRM1 overexpression. A general note: Immunoblotting shows a protein as a band on a membrane.

Protein sequences, listed by entry. Tags and fused reporters are not part of them. Lines headed by an entry give the natural chain unless they say otherwise; changes in a name come on top.
UniProt Q13887: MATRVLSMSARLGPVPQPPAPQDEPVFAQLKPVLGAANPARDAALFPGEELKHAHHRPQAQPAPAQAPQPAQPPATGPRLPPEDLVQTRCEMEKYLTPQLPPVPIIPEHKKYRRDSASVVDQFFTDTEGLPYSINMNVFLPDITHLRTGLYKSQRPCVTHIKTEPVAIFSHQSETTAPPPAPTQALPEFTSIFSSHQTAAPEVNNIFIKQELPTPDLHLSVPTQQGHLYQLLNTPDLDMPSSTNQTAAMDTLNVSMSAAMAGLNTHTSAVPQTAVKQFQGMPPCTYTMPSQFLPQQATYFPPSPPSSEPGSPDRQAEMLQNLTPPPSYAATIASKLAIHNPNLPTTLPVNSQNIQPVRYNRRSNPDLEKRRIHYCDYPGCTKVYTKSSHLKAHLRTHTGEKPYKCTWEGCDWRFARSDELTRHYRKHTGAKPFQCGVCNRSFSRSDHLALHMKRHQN
UniProt P06748: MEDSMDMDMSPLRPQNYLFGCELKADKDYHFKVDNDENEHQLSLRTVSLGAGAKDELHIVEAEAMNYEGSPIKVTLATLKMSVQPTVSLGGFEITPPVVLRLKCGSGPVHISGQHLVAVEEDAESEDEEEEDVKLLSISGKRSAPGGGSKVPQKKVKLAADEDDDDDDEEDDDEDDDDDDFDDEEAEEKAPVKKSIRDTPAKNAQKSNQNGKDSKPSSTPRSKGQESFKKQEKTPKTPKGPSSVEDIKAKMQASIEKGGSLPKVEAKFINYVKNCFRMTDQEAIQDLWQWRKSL

The record followed here is publication PMC8493742.

These are yes or no findings as the source states them, for the method shown. In cells and extracts the contact can be indirect.

With “NPM1 mutation type A (mutant nucleophosmin) (from UniProt P06748)”, the binding entry is recorded as “no binding”.
